Measurements taken from PMC2714318.
Results are given in words; binding and its absence hold for the method and conditions named. Some binding calls cover weakened binding; strength is not graded here. Tags and fused reporters may be left off the sequences shown.

Biological target: ASP2 (actinobacteria-specific protein 2; SCO1662) from Streptomyces coelicolor (S. coelicolor) (UniProt Q9ADA5)
Experiment: crystal structure; preliminary X-ray crystallographic analysis of ASP2, data not shown; both purified

B1: ASP2 (actinobacteria-specific protein 2; SCO1662) from Streptomyces coelicolor (protein, UniProt Q9ADA5 1-333)
chain: MIELEGVPELVDPVMVAAFEGWNDAGDAASTAVAHLDREWKGEVFAALDAEDYYDFQVNRPTVFMEDGVRKITWPTTRLSVVRVGGDKPRDLVLVRGIEPSMRWRSFCNELLGFAHELGVELVVVLGALLGDTPHTRPVPISGTTSDADLARRMDLEETKYEGPTGIVGILQEACTHAGVPAVSLWAAVPHYVSQPPNPKATLALLNRLEDLIGVRVPLGELPEDARAWQVGVDQLAAEDTEVAEYVQSLEEARDTAELPEASGEAIAREFERYLRRRDGAGPGGPGGPGGHATADGGDGPAGAPFRRDNPSGRARPPKPPKAGGDDEESSED
B1 was tested, and the binding was “binds”.
